# This is one part of the list. The calls rarely recur for the same compound in another form.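 Kinases were expressed as nanoluciferase fusions in K562 cells and luminescence was read every 4 h between 2 and 18 h as percent of control, DMSO set to 100% and a positive control to 0%. A time point counts as decreased when the signal drops significantly (2 sigma). The hit call is the authors' own, does not follow from the count of time points alone, and its rule is not shown.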
# Protein sequences, listed by entry. Tags and fused reporters are not part of them. Lines headed by an entry give the natural chain unless they say otherwise; changes in a name come on top.
# UniProt Q96KB5: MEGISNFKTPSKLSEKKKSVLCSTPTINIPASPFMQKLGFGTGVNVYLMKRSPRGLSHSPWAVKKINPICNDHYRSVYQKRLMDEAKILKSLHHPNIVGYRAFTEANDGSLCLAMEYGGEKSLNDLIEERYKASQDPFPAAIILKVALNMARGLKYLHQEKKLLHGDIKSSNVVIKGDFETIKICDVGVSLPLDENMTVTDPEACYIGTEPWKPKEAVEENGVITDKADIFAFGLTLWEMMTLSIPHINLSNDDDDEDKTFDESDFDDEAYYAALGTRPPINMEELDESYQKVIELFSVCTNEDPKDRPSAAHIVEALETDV
# UniProt Q15118, whole entry, looked up: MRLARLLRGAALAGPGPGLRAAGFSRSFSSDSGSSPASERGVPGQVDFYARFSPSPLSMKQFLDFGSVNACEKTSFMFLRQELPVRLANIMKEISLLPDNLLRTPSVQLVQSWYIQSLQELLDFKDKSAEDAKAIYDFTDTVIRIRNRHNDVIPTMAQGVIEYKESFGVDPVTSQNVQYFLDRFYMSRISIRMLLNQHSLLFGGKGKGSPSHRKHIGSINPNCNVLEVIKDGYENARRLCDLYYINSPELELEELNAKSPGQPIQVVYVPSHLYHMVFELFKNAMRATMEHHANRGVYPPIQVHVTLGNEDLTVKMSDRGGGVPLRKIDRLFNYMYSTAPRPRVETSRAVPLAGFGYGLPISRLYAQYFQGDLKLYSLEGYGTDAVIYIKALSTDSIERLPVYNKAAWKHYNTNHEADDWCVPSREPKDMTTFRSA
# UniProt P42356, whole entry, looked up: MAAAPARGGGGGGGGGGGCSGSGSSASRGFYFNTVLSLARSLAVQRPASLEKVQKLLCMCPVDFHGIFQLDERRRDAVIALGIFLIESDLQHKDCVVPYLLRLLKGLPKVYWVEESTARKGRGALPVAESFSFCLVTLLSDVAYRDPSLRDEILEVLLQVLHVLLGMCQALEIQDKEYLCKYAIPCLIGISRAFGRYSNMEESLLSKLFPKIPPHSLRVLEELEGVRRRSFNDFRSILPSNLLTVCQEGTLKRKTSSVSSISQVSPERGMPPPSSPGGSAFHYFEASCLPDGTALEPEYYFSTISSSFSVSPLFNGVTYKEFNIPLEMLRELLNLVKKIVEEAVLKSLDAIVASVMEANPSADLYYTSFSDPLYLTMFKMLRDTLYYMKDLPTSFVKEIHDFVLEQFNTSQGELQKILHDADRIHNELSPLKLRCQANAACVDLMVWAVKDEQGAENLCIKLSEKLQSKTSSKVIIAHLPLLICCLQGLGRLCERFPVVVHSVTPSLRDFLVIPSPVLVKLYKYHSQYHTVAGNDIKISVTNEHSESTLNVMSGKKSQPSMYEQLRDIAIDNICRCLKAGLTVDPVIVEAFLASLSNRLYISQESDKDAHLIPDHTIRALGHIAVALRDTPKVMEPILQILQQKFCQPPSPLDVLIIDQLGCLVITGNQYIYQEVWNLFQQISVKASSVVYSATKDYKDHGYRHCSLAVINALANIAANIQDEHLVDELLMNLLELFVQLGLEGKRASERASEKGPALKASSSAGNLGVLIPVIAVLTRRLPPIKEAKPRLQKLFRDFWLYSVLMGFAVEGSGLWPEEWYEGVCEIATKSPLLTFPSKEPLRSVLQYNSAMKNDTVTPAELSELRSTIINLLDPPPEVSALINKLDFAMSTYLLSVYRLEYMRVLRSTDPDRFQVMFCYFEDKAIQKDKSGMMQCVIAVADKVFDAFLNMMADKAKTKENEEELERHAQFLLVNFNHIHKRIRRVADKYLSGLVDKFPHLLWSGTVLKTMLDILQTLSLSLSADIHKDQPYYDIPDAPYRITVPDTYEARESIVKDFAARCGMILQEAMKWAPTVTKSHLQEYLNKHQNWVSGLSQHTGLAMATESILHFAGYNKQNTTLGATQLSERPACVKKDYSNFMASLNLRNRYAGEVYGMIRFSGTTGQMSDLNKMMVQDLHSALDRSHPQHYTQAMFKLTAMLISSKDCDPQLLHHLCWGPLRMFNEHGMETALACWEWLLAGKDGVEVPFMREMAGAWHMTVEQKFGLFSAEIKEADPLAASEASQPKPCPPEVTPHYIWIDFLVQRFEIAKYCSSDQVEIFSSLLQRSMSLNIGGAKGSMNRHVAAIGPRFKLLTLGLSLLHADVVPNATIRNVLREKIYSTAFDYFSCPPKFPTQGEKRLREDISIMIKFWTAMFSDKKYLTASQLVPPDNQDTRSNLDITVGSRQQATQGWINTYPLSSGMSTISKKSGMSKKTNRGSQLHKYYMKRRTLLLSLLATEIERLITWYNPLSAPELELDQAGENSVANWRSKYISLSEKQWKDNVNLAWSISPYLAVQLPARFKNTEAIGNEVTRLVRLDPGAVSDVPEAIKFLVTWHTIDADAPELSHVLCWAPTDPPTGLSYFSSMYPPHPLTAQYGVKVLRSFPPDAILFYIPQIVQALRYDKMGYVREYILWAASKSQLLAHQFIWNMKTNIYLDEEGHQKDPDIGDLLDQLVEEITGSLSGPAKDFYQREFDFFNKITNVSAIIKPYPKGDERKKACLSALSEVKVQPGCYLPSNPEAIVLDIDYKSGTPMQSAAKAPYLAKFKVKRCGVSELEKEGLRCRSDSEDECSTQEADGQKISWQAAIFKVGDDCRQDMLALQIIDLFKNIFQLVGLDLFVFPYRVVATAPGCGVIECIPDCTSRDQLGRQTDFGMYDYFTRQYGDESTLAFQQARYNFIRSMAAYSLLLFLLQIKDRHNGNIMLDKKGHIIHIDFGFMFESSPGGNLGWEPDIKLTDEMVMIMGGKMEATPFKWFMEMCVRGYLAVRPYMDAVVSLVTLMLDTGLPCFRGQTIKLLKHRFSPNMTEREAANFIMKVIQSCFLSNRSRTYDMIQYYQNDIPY
# UniProt Q9UBF8: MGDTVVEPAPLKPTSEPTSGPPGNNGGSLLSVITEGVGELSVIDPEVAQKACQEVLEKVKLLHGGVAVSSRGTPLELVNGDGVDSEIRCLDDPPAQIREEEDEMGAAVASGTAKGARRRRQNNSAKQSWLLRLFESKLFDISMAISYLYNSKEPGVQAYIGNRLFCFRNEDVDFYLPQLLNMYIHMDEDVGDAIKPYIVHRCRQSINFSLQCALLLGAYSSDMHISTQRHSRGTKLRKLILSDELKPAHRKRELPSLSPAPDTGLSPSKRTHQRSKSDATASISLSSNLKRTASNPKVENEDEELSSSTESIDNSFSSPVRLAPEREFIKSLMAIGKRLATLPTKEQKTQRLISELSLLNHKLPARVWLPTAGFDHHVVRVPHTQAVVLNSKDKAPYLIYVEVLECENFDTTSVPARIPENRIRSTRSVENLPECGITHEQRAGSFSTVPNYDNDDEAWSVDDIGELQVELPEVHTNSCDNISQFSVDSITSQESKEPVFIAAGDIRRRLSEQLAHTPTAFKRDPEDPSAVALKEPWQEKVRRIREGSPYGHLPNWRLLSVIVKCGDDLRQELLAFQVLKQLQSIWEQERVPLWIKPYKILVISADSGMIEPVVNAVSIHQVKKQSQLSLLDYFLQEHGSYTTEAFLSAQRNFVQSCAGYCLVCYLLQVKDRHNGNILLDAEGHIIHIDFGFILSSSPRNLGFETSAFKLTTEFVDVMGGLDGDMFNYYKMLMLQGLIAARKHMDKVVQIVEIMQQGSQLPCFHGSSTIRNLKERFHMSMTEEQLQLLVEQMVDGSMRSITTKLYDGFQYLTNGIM
# UniProt P53350, whole entry: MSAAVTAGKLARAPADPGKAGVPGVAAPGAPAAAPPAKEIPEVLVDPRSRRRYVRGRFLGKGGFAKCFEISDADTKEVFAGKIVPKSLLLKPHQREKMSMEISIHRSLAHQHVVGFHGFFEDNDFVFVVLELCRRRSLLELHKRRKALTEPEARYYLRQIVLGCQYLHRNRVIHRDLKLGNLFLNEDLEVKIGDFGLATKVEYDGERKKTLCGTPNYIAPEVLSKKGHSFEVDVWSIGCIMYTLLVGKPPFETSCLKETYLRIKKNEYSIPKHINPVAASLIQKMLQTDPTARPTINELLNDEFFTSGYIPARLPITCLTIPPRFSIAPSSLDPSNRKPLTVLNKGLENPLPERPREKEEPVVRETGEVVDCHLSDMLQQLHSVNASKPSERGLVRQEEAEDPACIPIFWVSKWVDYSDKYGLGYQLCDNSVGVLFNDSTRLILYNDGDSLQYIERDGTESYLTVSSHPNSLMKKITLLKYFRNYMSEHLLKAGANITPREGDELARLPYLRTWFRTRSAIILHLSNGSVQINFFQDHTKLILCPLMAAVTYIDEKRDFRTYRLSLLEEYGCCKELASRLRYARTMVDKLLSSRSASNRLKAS
# UniProt Q13131: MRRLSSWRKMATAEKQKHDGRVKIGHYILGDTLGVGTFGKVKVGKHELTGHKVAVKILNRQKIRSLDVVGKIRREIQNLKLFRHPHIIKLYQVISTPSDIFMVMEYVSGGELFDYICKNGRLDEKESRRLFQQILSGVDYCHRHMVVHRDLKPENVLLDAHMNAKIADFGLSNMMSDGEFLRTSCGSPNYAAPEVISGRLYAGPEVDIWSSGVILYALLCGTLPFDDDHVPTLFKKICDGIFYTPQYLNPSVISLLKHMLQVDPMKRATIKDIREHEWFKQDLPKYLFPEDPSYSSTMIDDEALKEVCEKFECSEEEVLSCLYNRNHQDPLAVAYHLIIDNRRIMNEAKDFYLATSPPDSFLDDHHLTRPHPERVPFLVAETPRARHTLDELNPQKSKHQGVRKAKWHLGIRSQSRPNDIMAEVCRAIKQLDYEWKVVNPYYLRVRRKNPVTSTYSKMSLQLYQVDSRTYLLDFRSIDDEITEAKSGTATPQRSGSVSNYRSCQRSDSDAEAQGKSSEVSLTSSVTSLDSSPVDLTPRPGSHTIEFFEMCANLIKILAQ
# UniProt Q14289, whole entry, looked up: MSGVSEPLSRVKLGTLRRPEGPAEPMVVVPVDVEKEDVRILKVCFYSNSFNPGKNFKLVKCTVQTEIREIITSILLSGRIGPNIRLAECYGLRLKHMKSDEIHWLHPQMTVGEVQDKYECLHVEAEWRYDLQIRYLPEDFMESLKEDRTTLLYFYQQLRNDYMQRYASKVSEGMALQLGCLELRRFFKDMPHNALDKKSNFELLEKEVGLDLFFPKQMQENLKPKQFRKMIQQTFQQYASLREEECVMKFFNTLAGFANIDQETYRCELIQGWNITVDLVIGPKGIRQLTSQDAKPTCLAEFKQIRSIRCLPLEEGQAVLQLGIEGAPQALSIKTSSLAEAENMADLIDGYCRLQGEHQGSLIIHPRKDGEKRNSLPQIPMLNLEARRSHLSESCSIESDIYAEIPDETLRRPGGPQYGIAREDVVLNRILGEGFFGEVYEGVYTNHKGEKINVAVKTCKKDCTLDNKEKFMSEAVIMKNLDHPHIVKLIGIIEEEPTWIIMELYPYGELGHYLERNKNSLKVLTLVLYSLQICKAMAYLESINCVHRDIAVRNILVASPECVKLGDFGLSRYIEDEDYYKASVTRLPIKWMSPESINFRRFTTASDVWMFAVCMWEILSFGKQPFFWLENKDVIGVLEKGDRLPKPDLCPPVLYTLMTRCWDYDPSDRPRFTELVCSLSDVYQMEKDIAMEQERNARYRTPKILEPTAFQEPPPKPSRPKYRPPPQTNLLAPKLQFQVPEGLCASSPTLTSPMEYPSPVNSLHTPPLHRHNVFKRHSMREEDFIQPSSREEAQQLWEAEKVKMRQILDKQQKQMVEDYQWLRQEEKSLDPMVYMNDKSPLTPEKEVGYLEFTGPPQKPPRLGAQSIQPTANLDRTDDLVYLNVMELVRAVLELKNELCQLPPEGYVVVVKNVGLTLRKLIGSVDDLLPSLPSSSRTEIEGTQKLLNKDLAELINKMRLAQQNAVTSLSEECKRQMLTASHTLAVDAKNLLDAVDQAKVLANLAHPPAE
# How the values were obtained:
# Test in all cases: number of time points (of 5) at which kinase-Nluc abundance scored as decreased, DMSO-normalised (count); higher = more persistent destabilization
# Details in all cases: K562; 2-18 h
# NTRK3 = NTRK3 (UniProt Q16288)
# PAK4 = PAK4 (UniProt O96013)
# PBK = PBK (UniProt Q96KB5)
# PDGFRB = PDGFRB (UniProt P09619)
# PDK1 = PDK1 (UniProt Q15118)
# PDPK1 = PDPK1 (UniProt O15530)
# PIK4CA = PIK4CA (UniProt P42356)
# PIK4CB = PIK4CB (UniProt Q9UBF8)
# PLK1 = PLK1 (UniProt P53350)
# PRKAA1 = PRKAA1 (UniProt Q13131)
# PRKCA = PRKCA (UniProt P17252)
# PTK2 = PTK2 (UniProt Q05397)
# PTK2B = PTK2B (UniProt Q14289)
# RAF1 = RAF1 (UniProt P04049)
# [1] = target: RAF1_S257L (clone: RAF1_mut) (UniProt P04049)
# RET = RET (UniProt P07949)
# [2] = target: RET_M918T (clone: RET_mut) (UniProt P07949)
# RIOK1 = RIOK1 (UniProt Q9BRS2)
# RIPK1 = RIPK1 (UniProt Q13546)
# RIPK2 = RIPK2 (UniProt O43353)
Compound,number of time points (NTRK3),number of time points (PAK4),number of time points (PBK),number of time points (PDGFRB),number of time points (PDK1),number of time points (PDPK1),number of time points (PIK4CA),number of time points (PIK4CB),number of time points (PLK1),number of time points (PRKAA1),number of time points (PRKCA),number of time points (PTK2),number of time points (PTK2B),number of time points (RAF1),number of time points [1],number of time points (RET),number of time points [2],number of time points (RIOK1),number of time points (RIPK1),number of time points (RIPK2)
OCCC#Cc1nc(-c2ccc(F)cc2)c(-c2ccncc2)n1CCCc1ccccc1 (2.5 µM),0,0,0,0,0,0,0,0,0,0,0,0,0,0,0,0,0,0,0,0
COC(=O)/C=C/c1ccc(O)c(OC)c1 [Ferulic acid methyl ester] (10 µM),0,0,0,0,0,0,0,0,0,0,0,0,0,0,0,0,0,0,0,0
CC(C)(C)c1ccc(C(=O)Nc2cn3cc(-n4ccnc4)ccc3n2)cc1 (10 µM),0,0,0,0,0,0,0,0,0,0,0,0,0,0,0,0,0,0,0,0
N#Cc1cn([C@@H]2O[C@H](CO)[C@@H](O)[C@H]2O)c2nc[nH]c(=O)c12 [Jaspamycin] (10 µM),0,0,0,0,0,0,0,0,0,0,0,0,0,0,0,0,0,0,0,0
CCCCCC1CC1CC1CC1CCCCCCCC(=O)O (stereo not given) (10 µM),0,0,0,0,0,0,0,0,0,0,0,0,0,0,0,0,0,0,0,0
CN(C)CCCn1cc(C2=C(c3c[nH]c4ccccc34)C(=O)NC2=O)c2ccccc21 [Bisindolylmaleimide I] (2.5 µM),0,0,0,0,0,0,0,0,0,0,0,0,0,0,0,0,0,0,0,0
CNC[C@@H](NC(=O)c1ccc(-c2nc([C@H]3CC[C@H](O)[C@@H](F)C3)cnc2N)cc1F)c1cc(F)cc(Br)c1 [Rineterkib] (10 µM),0,0,0,0,0,0,0,0,0,0,0,0,0,0,0,0,0,0,0,0
Oc1ccc2ccccc2c1SSc1c(O)ccc2ccccc12 (10 µM),0,0,0,0,0,0,0,0,0,0,0,0,0,0,0,0,0,0,0,0
CS(=O)(=O)N1CCN(Cc2cn3cc(-c4cnc(N)nc4)nc(N4CCOCC4)c3n2)CC1 (10 µM),0,0,0,0,0,0,0,0,0,0,0,3,0,2,0,0,0,0,0,0
CC[C@@H]1CN(C(=O)NCC(F)(F)F)C[C@@H]1c1cnc2cnc3[nH]ccc3n12 [Upadacitinib] (10 µM),0,0,0,0,0,0,0,0,0,0,0,0,0,0,0,0,0,0,0,0
COc1ccc(-c2cnc3c(-c4cccc5ncccc45)cnn3c2)cc1 (10 µM),0,0,0,0,0,0,0,0,0,0,0,0,0,0,0,0,0,0,0,0
COc1ccc(C(=O)c2cn(C(C)C)c3ncnc(N)c23)cc1NC(=O)Nc1ccc(Cl)cc1Cl (10 µM),0,0,0,0,0,0,0,0,0,0,0,4,0,2,0,0,0,0,0,0
C1=N/C2=N/c3ccc(OCCN4CCCC4)c(c3)COC/C=C/COCc3cccc(c3)C(=C1)N2 [Pacritinib] (2.5 µM),0,0,0,0,0,0,0,0,0,0,0,1,0,0,0,0,0,0,0,0
O=S(=O)(c1cccc2c(Cl)cccc12)N1CCCNCC1 (10 µM),0,0,0,0,0,0,0,0,0,0,0,0,0,0,0,0,0,0,0,0
O=c1[nH]nc(Sc2ncc([N+](=O)[O-])s2)n1-c1ccc2c(c1)OCCO2 (2.5 µM),0,0,0,0,0,0,0,0,1,0,0,0,0,0,0,0,0,0,0,0
Cn1cc(-c2ccc3ncc(Cc4ccc5ncccc5c4)n3n2)cn1 (10 µM),0,0,0,0,0,0,0,0,0,0,0,0,0,0,0,0,0,0,0,0

# Entries of single compounds as entered above. Order of values: number of time points (NTRK3) | number of time points (PAK4) | number of time points (PBK) | number of time points (PDGFRB) | number of time points (PDK1) | number of time points (PDPK1) | number of time points (PIK4CA) | number of time points (PIK4CB) | number of time points (PLK1) | number of time points (PRKAA1) | number of time points (PRKCA) | number of time points (PTK2) | number of time points (PTK2B) | number of time points (RAF1) | number of time points [1] | number of time points (RET) | number of time points [2] | number of time points (RIOK1) | number of time points (RIPK1) | number of time points (RIPK2)
# COC(=O)/C=C/c1ccc(O)c(OC)c1 [Ferulic acid methyl ester] (10 µM) in the list: 0 | 0 | 0 | 0 | 0 | 0 | 0 | 0 | 0 | 0 | 0 | 0 | 0 | 0 | 0 | 0 | 0 | 0 | 0 | 0
# CC(C)(C)c1ccc(C(=O)Nc2cn3cc(-n4ccnc4)ccc3n2)cc1 (10 µM) in the list: 0 | 0 | 0 | 0 | 0 | 0 | 0 | 0 | 0 | 0 | 0 | 0 | 0 | 0 | 0 | 0 | 0 | 0 | 0 | 0
